Values from PubChem BioAssay AID1259264 (Sanger Institute, 2017).
Shown is an unselected part of 794 reagents. Over the whole deposit, 15 (1.9%) were called active. 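Calls rest on knock-down alone at z-score below -3; synergy scores with the three drugs do not decide them.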 A number with no mark means an inactive call. Viability is capped at 1. Not all columns of the deposit are shown. Not given: the amount of reagent, the time to read-out.

Assay: 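Kinases needed for CL40 growth and those that boost anti-cancer drug killing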 (primary screen)
Cell system: CL40 human colorectal cancer cells
Reagents: siRNA pool against human genes
Challenge: DMSO, or an anchor drug: BYL719 at 1 µM, cetuximab at 5 µg/ml, or trametinib at 10 nM
Read-out: 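Viability as a fraction of non-targeting pool control (replicates averaged), control-based robust z-score, plus averaged synergy for each drug: BYL719 1 µM, cetuximab 5 µg/ml, trametinib 10 nM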
Direction: robust z-score, siRNA alone and viability, siRNA alone: higher = more viable cells
Units: viability, siRNA alone in fraction of control
Active means: 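Essential call: siRNA with no drug reaches a robust z under -3 (low cell count); drug synergy scores do not affect it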
Meaning of the calls: active = essential (lowers viability alone); inactive = not essential

With knock-down of PRKCZ (GeneID 5590), the record shows robust z-score, siRNA alone 0.0332; viability, siRNA alone 0.964. With knock-down of NUP62 (GeneID 23636) the results were robust z-score, siRNA alone -1.15; viability, siRNA alone 0.879. Silencing of TYRO3 (GeneID 7301) gave: robust z-score, siRNA alone -0.0735; viability, siRNA alone 0.956. Against GUCY2C (GeneID 2984), the values are robust z-score, siRNA alone 0.273; viability, siRNA alone 0.981. After knock-down of GUK1 (GeneID 2987) the results were robust z-score, siRNA alone -2.07; viability, siRNA alone 0.813. Knock-down of STK32A (GeneID 202374) came out at: robust z-score, siRNA alone 0.539; viability, siRNA alone 1.

Against PLK3 (GeneID 1263) the deposit lists robust z-score, siRNA alone -0.0916; viability, siRNA alone 0.955. After knock-down of GRK1 (GeneID 6011), the record shows robust z-score, siRNA alone 0.539; viability, siRNA alone 1. Knock-down of CAMK2N1 (GeneID 55450) came out at: robust z-score, siRNA alone -2.11; viability, siRNA alone 0.81. After knock-down of WHR1 (GeneID 8859), the record shows robust z-score, siRNA alone 0.539; viability, siRNA alone 1. For MARK1 (GeneID 4139), the values are robust z-score, siRNA alone 0.539; viability, siRNA alone 1. FASTK (GeneID 10922) scored robust z-score, siRNA alone 0.0474; viability, siRNA alone 0.965.
